# Reference: paper PMC7577489
# By UniProt entry, the sequences of proteins in these tests, tags left out.
# UniProt P06634: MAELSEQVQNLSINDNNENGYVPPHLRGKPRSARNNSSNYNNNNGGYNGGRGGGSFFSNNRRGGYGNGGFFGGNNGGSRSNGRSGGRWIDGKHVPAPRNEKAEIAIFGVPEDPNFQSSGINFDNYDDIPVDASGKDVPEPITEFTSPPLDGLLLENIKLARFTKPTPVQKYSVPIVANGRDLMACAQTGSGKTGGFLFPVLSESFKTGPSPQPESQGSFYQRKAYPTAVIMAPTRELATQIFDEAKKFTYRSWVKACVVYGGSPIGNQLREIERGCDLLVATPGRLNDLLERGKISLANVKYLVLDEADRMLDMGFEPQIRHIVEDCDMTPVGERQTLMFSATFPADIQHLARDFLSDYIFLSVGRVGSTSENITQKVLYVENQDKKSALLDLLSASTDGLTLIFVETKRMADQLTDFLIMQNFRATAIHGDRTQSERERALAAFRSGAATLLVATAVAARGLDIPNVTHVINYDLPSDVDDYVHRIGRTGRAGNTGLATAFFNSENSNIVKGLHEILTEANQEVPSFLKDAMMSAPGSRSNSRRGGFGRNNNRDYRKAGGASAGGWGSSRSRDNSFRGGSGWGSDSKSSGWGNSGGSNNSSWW
# These are yes or no findings as the source states them, for the method shown. Binding seen in cells or lysates may run through a third protein. Some results given as binding are weak or reduced against the parent protein; the word gives no strength. Sequences can lack the tags named with a protein.
# Molecular target: T1, Flag-p33 replication protein (Tomato bushy stunt virus) (UniProt P15962)
# T1 sequence: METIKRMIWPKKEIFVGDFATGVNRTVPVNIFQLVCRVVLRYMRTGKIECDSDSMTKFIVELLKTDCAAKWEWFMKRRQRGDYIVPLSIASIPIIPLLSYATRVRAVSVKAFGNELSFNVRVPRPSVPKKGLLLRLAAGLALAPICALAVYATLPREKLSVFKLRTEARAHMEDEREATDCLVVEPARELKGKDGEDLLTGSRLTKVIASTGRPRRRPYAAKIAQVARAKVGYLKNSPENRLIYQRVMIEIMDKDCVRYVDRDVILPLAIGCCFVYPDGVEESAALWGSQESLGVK
# Assay: co-IP; co-purification with Flag-p33 on anti-FLAG M2-agarose from detergent-solubilized (2% Triton X-100, high-salt TG buffer, 0.5 M NaCl) yeast membranes; His6-tagged proteins detected with anti-His antibody; with or without co-expressed RH20^ΔN, RH30^ΔN/ΔC or RH30
substance,measurement,value
His6-Ded1 (yeast DDX3-like Ded1 helicase) (from UniProt P06634 1-604),binding,binds
